Results on 37 targets are retold here after the supplement of paper PMC6411743.

Chains of the proteins cited; added tags and fusions are not shown. Lines headed by an entry give the natural chain unless they say otherwise; changes in a name come on top.
UniProt Q92784, whole entry: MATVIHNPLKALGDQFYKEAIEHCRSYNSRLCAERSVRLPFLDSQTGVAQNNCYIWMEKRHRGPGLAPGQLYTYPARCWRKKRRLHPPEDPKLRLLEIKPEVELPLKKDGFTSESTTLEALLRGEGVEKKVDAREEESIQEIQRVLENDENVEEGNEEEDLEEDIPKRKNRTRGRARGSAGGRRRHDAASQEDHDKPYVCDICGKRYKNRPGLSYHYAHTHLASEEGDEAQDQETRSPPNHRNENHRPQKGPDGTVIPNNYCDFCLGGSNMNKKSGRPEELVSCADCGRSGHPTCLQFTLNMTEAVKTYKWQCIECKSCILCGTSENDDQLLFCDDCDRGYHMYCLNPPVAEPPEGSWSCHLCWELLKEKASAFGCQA
UniProt Q8ND04: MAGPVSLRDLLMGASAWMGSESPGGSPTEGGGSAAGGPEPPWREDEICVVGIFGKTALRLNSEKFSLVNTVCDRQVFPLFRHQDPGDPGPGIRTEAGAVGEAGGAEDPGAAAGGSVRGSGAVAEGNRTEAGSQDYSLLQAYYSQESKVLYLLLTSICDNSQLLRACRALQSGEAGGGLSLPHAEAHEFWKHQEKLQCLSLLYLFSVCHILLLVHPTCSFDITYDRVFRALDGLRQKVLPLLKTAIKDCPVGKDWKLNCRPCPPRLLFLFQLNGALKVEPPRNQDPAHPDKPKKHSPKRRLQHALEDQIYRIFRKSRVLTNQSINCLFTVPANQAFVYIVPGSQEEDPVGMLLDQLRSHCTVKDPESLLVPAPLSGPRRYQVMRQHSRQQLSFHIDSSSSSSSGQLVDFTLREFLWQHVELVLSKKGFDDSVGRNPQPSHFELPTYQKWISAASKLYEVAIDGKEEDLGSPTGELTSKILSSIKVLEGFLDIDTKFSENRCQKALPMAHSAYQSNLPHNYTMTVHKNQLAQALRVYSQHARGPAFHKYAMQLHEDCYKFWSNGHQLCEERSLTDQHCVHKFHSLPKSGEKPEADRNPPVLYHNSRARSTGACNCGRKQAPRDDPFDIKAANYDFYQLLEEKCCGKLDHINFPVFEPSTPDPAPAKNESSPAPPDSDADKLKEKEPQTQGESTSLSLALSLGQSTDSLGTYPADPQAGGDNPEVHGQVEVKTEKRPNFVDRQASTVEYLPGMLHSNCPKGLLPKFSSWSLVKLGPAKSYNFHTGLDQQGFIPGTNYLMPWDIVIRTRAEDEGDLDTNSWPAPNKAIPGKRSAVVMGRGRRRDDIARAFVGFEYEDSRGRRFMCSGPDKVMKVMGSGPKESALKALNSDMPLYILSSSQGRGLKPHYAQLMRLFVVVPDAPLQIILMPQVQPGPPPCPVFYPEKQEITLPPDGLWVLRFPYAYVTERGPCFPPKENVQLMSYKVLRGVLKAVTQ
UniProt Q8WVJ2: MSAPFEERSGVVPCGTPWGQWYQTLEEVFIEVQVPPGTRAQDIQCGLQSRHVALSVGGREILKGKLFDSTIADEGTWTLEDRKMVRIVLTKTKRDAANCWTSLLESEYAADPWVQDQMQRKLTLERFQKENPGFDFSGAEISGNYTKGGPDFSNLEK
UniProt Q8WVM7: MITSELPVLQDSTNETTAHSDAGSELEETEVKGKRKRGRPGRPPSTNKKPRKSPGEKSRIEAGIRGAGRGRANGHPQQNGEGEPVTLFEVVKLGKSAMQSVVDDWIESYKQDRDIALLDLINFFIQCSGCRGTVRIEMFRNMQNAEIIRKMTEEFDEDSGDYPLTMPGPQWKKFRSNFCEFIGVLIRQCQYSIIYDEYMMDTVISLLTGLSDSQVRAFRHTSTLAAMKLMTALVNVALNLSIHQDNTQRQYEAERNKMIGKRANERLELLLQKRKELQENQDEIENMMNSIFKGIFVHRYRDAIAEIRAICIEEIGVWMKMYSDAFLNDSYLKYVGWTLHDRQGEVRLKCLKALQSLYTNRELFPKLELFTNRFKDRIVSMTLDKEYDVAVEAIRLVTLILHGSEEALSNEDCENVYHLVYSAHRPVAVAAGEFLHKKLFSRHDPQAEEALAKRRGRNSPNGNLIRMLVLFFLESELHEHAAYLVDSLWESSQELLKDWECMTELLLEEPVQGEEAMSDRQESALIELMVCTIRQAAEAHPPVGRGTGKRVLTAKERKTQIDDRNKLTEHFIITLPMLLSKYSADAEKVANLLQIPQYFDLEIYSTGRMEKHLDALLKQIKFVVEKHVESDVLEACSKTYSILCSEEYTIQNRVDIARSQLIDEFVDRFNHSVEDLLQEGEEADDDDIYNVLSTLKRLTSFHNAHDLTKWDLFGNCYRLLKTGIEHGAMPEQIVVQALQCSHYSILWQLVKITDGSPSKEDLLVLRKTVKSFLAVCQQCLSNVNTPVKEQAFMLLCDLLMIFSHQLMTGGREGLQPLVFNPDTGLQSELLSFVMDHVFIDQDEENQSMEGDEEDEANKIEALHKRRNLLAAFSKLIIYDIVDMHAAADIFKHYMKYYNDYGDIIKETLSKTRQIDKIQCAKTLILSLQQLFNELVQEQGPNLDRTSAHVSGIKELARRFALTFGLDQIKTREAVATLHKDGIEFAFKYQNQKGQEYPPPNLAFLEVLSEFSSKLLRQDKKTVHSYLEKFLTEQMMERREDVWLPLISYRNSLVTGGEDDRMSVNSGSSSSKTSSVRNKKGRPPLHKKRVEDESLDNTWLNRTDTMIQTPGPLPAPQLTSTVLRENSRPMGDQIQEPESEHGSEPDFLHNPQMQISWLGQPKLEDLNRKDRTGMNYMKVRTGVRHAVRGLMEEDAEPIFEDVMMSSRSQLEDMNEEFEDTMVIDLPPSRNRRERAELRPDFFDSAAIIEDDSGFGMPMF
UniProt Q8TAP8: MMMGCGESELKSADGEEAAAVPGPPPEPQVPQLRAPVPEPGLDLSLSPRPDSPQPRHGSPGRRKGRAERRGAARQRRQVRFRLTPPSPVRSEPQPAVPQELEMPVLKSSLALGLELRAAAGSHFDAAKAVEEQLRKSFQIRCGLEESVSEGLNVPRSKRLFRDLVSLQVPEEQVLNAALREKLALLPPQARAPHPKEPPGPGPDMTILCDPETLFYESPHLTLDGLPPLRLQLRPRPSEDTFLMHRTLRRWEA
UniProt Q8NCL4: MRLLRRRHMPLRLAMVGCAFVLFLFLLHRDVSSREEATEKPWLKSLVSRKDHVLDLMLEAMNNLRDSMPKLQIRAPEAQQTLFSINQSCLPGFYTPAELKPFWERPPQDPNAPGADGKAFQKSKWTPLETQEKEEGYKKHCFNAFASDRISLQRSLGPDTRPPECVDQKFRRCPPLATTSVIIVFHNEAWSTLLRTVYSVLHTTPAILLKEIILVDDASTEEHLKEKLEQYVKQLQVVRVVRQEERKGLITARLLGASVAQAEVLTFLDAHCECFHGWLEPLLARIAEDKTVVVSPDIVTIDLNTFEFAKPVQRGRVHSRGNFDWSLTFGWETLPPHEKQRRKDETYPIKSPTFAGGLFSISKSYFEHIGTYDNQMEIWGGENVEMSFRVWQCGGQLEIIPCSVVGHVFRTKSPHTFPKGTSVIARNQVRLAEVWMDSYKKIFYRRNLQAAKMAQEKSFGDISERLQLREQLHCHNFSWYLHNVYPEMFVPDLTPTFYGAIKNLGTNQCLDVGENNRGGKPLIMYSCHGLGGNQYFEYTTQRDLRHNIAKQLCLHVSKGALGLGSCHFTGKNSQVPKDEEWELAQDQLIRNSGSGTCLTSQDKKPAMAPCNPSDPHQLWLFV
UniProt Q8WUH2: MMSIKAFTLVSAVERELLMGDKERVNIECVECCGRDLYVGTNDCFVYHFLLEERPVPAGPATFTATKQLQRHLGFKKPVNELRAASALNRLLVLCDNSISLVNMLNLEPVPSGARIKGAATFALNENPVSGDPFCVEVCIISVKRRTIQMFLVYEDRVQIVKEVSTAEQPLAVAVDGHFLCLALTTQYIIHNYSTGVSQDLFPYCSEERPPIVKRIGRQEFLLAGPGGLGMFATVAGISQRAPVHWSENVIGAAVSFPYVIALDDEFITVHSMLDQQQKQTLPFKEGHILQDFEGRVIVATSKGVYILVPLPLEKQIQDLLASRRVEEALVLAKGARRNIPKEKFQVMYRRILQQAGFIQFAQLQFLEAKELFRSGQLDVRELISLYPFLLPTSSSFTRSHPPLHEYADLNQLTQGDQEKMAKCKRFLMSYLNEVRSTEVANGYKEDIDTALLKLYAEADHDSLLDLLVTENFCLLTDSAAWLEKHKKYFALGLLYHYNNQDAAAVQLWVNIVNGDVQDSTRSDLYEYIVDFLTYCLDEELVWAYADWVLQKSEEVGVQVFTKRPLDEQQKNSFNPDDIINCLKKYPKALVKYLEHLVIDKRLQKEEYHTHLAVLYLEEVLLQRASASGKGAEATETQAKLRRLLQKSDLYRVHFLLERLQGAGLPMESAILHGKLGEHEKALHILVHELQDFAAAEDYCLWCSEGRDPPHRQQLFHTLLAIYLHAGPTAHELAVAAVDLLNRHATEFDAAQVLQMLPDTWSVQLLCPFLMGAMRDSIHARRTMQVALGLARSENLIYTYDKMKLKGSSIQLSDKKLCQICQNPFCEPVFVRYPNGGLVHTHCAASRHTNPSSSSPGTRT
UniProt Q8TB37: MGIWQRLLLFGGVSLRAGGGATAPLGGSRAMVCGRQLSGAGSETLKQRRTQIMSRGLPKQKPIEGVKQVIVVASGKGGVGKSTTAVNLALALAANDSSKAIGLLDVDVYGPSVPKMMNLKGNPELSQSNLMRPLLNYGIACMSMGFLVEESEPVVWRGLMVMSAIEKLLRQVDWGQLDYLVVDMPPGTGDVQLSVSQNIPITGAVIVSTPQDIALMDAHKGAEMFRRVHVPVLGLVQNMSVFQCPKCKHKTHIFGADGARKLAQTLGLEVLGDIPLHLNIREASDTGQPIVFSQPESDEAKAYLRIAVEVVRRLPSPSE
UniProt Q8WWH5: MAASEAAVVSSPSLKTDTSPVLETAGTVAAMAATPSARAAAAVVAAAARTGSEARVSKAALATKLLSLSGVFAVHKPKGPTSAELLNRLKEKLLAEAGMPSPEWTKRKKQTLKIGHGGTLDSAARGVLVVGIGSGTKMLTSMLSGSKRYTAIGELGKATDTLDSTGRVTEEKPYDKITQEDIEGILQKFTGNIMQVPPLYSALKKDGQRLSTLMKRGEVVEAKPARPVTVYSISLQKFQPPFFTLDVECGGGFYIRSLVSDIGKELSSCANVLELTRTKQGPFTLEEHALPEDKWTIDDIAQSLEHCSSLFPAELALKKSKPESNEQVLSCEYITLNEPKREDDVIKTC
UniProt Q8TEA8: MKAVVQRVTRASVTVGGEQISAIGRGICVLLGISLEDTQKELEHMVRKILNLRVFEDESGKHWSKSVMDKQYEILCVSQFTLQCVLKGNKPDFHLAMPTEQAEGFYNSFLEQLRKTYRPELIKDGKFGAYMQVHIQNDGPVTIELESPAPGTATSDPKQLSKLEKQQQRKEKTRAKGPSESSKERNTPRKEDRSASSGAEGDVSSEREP
UniProt Q8WW12: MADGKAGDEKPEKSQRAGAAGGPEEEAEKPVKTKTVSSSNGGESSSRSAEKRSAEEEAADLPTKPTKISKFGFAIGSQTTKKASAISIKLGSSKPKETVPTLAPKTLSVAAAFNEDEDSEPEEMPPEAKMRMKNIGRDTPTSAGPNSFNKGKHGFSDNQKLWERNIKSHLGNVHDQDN
UniProt Q8TBC4: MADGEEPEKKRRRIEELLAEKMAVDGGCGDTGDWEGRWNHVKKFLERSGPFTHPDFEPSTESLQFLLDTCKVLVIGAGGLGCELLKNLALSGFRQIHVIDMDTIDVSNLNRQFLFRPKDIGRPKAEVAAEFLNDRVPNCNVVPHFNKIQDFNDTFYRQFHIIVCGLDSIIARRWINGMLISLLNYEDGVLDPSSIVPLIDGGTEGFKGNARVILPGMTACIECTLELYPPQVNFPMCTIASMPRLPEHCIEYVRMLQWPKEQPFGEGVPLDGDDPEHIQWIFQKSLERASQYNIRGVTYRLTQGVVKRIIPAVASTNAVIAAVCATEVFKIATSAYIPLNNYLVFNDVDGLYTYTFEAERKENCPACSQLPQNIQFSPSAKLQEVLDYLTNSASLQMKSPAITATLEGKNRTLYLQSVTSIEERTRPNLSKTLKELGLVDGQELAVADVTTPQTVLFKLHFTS
UniProt Q8ND56: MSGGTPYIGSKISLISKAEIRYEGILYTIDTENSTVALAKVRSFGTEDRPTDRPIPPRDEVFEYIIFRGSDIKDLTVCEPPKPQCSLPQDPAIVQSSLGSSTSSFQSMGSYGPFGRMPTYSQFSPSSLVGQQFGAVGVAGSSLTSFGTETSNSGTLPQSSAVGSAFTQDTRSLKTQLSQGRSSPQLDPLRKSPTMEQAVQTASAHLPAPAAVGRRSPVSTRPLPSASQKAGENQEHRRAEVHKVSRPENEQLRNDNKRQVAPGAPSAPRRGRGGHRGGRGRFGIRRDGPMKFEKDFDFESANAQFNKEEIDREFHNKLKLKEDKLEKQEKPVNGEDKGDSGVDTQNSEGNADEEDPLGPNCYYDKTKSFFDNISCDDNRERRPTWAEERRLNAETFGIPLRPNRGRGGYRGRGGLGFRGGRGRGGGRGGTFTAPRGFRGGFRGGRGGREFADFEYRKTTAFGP

± gives the standard deviation of the averaged measurements. Only a part is listed here, and it is no random draw. Most values lie at the level of the controls, where differences are scatter.

Compound in the first experiment: Nc1ncnc2c1ncn2[C@@H]1O[C@H](COP(=O)(O)OP(=O)(O)NP(=O)(O)O)[C@@H](O)[C@H]1O [adenylyl imidodiphosphate]
The experiment can be described thus: NP40-soluble protein abundance relative to vehicle (solubility fold change) (ratio); higher = more soluble protein in presence of AMP-PNP. The settings on record: concentration: 0.1mM. Put shortly: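 Eight concentrations, 0.1 to 10 mM, were tested on Jurkat crude lysate for 10 min at room temperature and then 3 min at 37 °C, in three independent experiments. The lysate was solubilised with 0.8% NP40 and benzonase, ultracentrifuged, and the supernatant TMT-labelled for LC-MS/MS. Each value is the fold change against the detergent-processed vehicle in its own replicate, from vsn-normalised intensities.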
Consider UniProt Q92784 and related entries, for which the NP40-soluble protein abundance was found to be 1.006 ± 0.0061.
Same read-out and setting: the figure for UniProt Q8ND04 and related entries is 1.01 ± 0.017; for NUDCD2 (UniProt Q8WVJ2) it is 0.965 ± 0.028; for TOR1AIP2 (UniProt Q8NFQ8) it is 0.965 ± 0.021.
Consider UniProt Q8WXE1 and related entries, for which the NP40-soluble protein abundance turned out to be 0.975 ± 0.035.
The same measure, in the same setting: the result for CMAS (UniProt Q8NFW8) reads 0.9817 ± 0.0014; that for UniProt Q8WVM7 and related entries, 1.01 ± 0.049; that for UniProt Q8WVT3, 1.01 ± 0.026.
On the same count and under the same terms, the result for UniProt Q92766 and related entries reads 1 ± 0.02; that for PPP1R35 (UniProt Q8TAP8), 0.99 ± 0.012; that for GALNT6 (UniProt Q8NCL4), 1.01 ± 0.041.
On the same count and under the same terms, the result for TGFBRAP1 (UniProt Q8WUH2) reads 0.994 ± 0.039.
For NUBPL (UniProt Q8TB37), the NP40-soluble protein abundance was found to be 0.988 ± 0.027.
Turning to OSTF1 (UniProt Q92882), the NP40-soluble protein abundance turned out to be 1.01 ± 0.028.
On the same count and under the same terms, the figure for DHX38 (UniProt Q92620) is 0.998 ± 0.047; for UniProt Q8TCY9 it is 1.01 ± 0.034; for UniProt Q8WU79 and related entries it is 0.974 ± 0.013.
Same read-out and setting: the figure for STT3B (UniProt Q8TCJ2) is 1.02 ± 0.044; for FIG4 (UniProt Q92562) it is 0.979 ± 0.018.
Still for that read-out and setting: the figure for UniProt Q8NDX5 and related entries is 1.01 ± 0.02; for TRUB1 (UniProt Q8WWH5) it is 1.02 ± 0.055; for UniProt Q8TCT7 and related entries it is 1.01 ± 0.017.
For the target UniProt Q8NEZ5 and related entries, the NP40-soluble protein abundance is 1.045 ± 0.0043.
On the same count and under the same terms, the result for UniProt Q8WU76 and related entries reads 0.962 ± 0.072; that for DTD1 (UniProt Q8TEA8), 0.991 ± 0.023.
Same read-out and setting: the figure for GADD45GIP1 (UniProt Q8TAE8) is 1.03 ± 0.018; for PLBD2 (UniProt Q8NHP8) it is 0.974 ± 0.027.
On the same count and under the same terms, the figure for PNPT1 (UniProt Q8TCS8) is 0.9899 ± 0.0044; for PIGK (UniProt Q92643) it is 1.03 ± 0.029; for UniProt Q8WUB8 and related entries it is 0.98 ± 0.023.
With DNAJB14 (UniProt Q8TBM8), the NP40-soluble protein abundance worked out at 0.983 ± 0.036.
The same measure, in the same setting: the result for PCNP (UniProt Q8WW12) reads 1 ± 0.059; that for NUDT8 (UniProt Q8WV74), 1.01 ± 0.013.
Still for that read-out and setting: the result for SMARCC1 (UniProt Q92922) reads 1.01 ± 0.035; that for UBA3 (UniProt Q8TBC4), 1.01 ± 0.026; that for LSM14A (UniProt Q8ND56), 0.989 ± 0.014.
Still for that read-out and setting: the figure for UniProt Q8NG08 and related entries is 1.01 ± 0.033.

The same experiment, now with this note: concentration: 0.5mM.
Turning to UniProt Q92784 and related entries, the NP40-soluble protein abundance was determined as 1.009 ± 0.0092.
In the case of UniProt Q8ND04 and related entries, the NP40-soluble protein abundance is 0.987 ± 0.013.
Same read-out and setting: the result for NUDCD2 (UniProt Q8WVJ2) reads 0.98 ± 0.029; that for TOR1AIP2 (UniProt Q8NFQ8), 0.996 ± 0.021; that for UniProt Q8WXE1 and related entries, 0.99 ± 0.047.
In the case of CMAS (UniProt Q8NFW8), the NP40-soluble protein abundance stood at 1.01 ± 0.024.
With UniProt Q8WVM7 and related entries, the NP40-soluble protein abundance turned out to be 0.966 ± 0.041.
Same read-out and setting: the figure for UniProt Q8WVT3 is 0.9815 ± 0.0066; for UniProt Q92766 and related entries it is 1 ± 0.049; for PPP1R35 (UniProt Q8TAP8) it is 0.9794 ± 0.0064.
GALNT6 (UniProt Q8NCL4): the NP40-soluble protein abundance came to 1.03 ± 0.02.
The same measure, in the same setting: the figure for TGFBRAP1 (UniProt Q8WUH2) is 0.988 ± 0.073; for NUBPL (UniProt Q8TB37) it is 1.02 ± 0.047; for OSTF1 (UniProt Q92882) it is 0.994 ± 0.036.
On the same count and under the same terms, the figure for DHX38 (UniProt Q92620) is 0.969 ± 0.037; for UniProt Q8TCY9 it is 0.999 ± 0.018.
The same measure, in the same setting: the figure for UniProt Q8WU79 and related entries is 1.03 ± 0.046; for STT3B (UniProt Q8TCJ2) it is 1.01 ± 0.051; for FIG4 (UniProt Q92562) it is 0.9798 ± 0.0084.
As for UniProt Q8NDX5 and related entries, the NP40-soluble protein abundance was determined as 1.03 ± 0.027.
The same measure, in the same setting: the figure for TRUB1 (UniProt Q8WWH5) is 1.06 ± 0.046; for UniProt Q8TCT7 and related entries it is 0.997 ± 0.021; for UniProt Q8NEZ5 and related entries it is 1.02 ± 0.074.
The same measure, in the same setting: the figure for UniProt Q8WU76 and related entries is 0.958 ± 0.11; for DTD1 (UniProt Q8TEA8) it is 1.02 ± 0.054; for GADD45GIP1 (UniProt Q8TAE8) it is 1.002 ± 0.0065.
On the same count and under the same terms, the figure for PLBD2 (UniProt Q8NHP8) is 1.01 ± 0.046.
With PNPT1 (UniProt Q8TCS8), the NP40-soluble protein abundance worked out at 0.987 ± 0.031.
In the case of PIGK (UniProt Q92643), the NP40-soluble protein abundance turned out to be 1 ± 0.078.
Same read-out and setting: the result for UniProt Q8WUB8 and related entries reads 1.02 ± 0.026.
The same measure, in the same setting: the figure for DNAJB14 (UniProt Q8TBM8) is 0.973 ± 0.019; for PCNP (UniProt Q8WW12) it is 1.11 ± 0.18.
The same measure, in the same setting: the result for NUDT8 (UniProt Q8WV74) reads 1.03 ± 0.031; that for SMARCC1 (UniProt Q92922), 1.05 ± 0.052.
Consider UBA3 (UniProt Q8TBC4), for which the NP40-soluble protein abundance amounted to 0.9941 ± 0.0065.
Same read-out and setting: the result for LSM14A (UniProt Q8ND56) reads 0.994 ± 0.037; that for UniProt Q8NG08 and related entries, 1.01 ± 0.035.
